No constants are given. Whether binding was seen depends on the method and setting. Binding seen in cells or lysates may run through a third protein. Some binding calls cover weakened binding; strength is not graded here. Where a sequence is shown, tags or fusion partners need not be part of it.
T1: Flag-CREG1 (cellular repressor of E1A-stimulated genes 1) (chicken) (UniProt Q5ZJ73)
T1 sequence: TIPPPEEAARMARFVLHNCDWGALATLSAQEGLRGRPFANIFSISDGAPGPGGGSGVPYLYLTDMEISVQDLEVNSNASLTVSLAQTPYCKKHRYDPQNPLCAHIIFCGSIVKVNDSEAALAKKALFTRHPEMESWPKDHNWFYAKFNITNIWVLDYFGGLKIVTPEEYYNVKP

B1: endogenous HSPD1 (heat shock protein family D (Hsp60) member 1) (protein, UniProt Q5ZL72 27-573)
chain: AKDVKFGADARALMLQGVDLLADAVAVTMGPKGRTVIIEQSWGSPKVTKDGVTVAKAIDLKDKYKNIGAKLVQDVANNTNEEAGDGTTTATVLARAIAKEGFEKISKGANPVEIRRGVMLAVDAITAELKKLSKPVTTPEEIAQVATISANGDQEIGNIISDAMKKVGRKGVITVKDGKTLNDELEIIEGMKFDRGYISPYFINTAKGQKCEFQDAYVLISEKKISSVQSIVPALEIANSHRKPLVIIAEDVDGEALSTLVLNRLKVGLQVVAVKAPGFGDNRKNQLKDMAIATGGAVFGEEGLSLNVEDIQPHDFGKVGEVIVTKDDTMLLKGKGEKAQIEKRIQEIIEQLEVTTSEYEKEKLNERLAKLSDGVAVLKVGGTSDVEVNEKKDRVTDALNATRAAVEEGIVPGGGCALLRCIPALDALKPANEDQKIGIEIIKRTLKIPAMTIAKNAGVEGSLIVEKILQSSSEVGYDAMLGEFVNMVEKGIIDPTKVVRTALMDAAGVASLLSTAEAVVTEVPKEEKEPAMGGMGGMGGGMGGGMF
B2: HA-HSPD1 (heat shock protein family D (Hsp60) member 1) (protein, UniProt Q5ZL72 27-573)
chain: B1 chain

Biological target: T1, Flag-CREG1 (cellular repressor of E1A-stimulated genes 1) (chicken)
Assay: co-IP; lysates (IP lysis buffer) of DF-1 cells transfected with Flag-CREG1 alone or with HA-HSPD1, with or without ALV-J infection; anti-Flag or anti-HA magnetic beads overnight at 4 °C, washed three times with lysis buffer; immunoblot

Binder	binding
B1	binds
B2	binds

— article PMC12867876
